Results: patent US20060100431A1, “Biologically active compounds” (Amura Therapeutics Limited, priority 2002, published 2006)
Some of these results come from one statement about several compounds together. Some ranges recur; such a range may be that of the whole group of compounds.

target: T1, human cathepsin K (Homo sapiens, UniProt P43235); experiment: Cathepsin K peptidase activity assay (Ki); format: biochemical
T1 construct: Dr. Boris Turk (Josef Stefan Institute, Ljubljana, Slovenia)
T1 sequence (P43235 115-329): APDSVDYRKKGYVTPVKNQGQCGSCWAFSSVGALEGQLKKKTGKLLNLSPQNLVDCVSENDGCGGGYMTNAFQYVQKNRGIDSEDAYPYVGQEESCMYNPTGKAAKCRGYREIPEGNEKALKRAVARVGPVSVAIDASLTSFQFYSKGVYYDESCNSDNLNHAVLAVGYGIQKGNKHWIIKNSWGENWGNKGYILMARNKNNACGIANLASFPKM
Procedure, shortened: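 Buffer: 10 mM bis-tris-propane pH 6.5, 1 mM EDTA, 5 mM 2-mercaptoethanol, 1 mM CaCl2; DMSO <1%. Ki assumed reversible, pure-competitive, from Ki^app=Ki(1+[So]/KM^app) by non-linear regression.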

SMILES | Ki, inhibitors of cathepsin K
CC(C)(C)c1ccc(C(=O)N[C@@H](Cc2cccs2)C(=O)N2CC[C@@H]3[C@H]2C(=O)CN3C(=O)c2cccnc2)cc1 [Example 23, (3aR,6aS)-4-tert-Butyl-N-{(1S)-2-oxo-2-[6-oxo-4-(pyridine-3-carbonyl)-hexahydro-pyrrolo[3,2-b]pyrrole-1-yl]-1-thiophen-2-ylmethyl-ethyl}-benzamide] | 1 to 5000 nM
CC(C)C[C@H](NC(=O)c1ccc(-c2ccccc2)s1)C(=O)N1CC[C@@H]2[C@H]1C(=O)CN2C(=O)c1ccccc1 [Example 44, (3aR,6aS)-5-Phenyl-thiophene-2-carboxylic acid [(1S)-1-(4-benzoyl-6-oxo-hexahydro-pyrrolo[3,2-b]pyrrole-1-carbonyl)-3-methyl-butyl]-amide] | 1 to 5000 nM
Cc1cc(C)cc(C(=O)N2CC(=O)[C@@H]3[C@H]2CCN3C(=O)[C@H](CC(C)C)NC(=O)c2ccc(N(C)C)cc2)c1 [Example 111, (3aR,6aS)-4-Dimethylamino-N-{(1S)-1-[4-(3,5-dimethyl-benzoyl)-6-oxo-hexahydro-pyrrolo[3,2-b]pyrrole-1-carbonyl]-3-methyl-butyl}-benzamide] | 1 to 5000 nM
CC(C)C[C@H](NC(=O)c1ccc(N(C)C)cc1)C(=O)N1CC[C@@H]2[C@H]1C(=O)CN2C(=O)C1CCCCC1 [Example 104, (3aR,6aS)-N-[(1S)-1-(4-Cyclohexanecarbonyl-6-oxo-hexahydro-pyrrolo[3,2-b]pyrrole-1-carbonyl)-3-methyl-butyl]-4-dimethylamino-benzamide] | 1 to 5000 nM
CC(=O)N[C@H](CC(C)C)C(=O)N1CC(=O)[C@@H]2[C@H]1CCN2C(=O)[C@H](CC(C)C)NC(=O)c1ccc(N(C)C)cc1 [Example 153, (3aR,6aS)-N-{(1S)-1-[4-((2R)-2-Acetylamino-4-methyl-pentanoyl)-6-oxo-hexahydro-pyrrolo[3,2-b]pyrrole-1-carbonyl]-3-methyl-butyl}-4-dimethylamino-benzamide] | 1 to 5000 nM
CCC(C)CC(=O)N1CC(=O)[C@@H]2[C@H]1CCN2C(=O)[C@H](CC(C)C)NC(=O)c1ccc(N(C)C)cc1 (stereo partly drawn) [Example 141, (3aR,6aS)-4-Dimethylamino-N-{(1S)-3-methyl-1-[4-(3-methyl-pentanoyl)-6-oxo-hexahydro-pyrrolo[3,2-b]pyrrole-1-carbonyl]-butyl}-benzamide] | 1 to 5000 nM
CC(C)C[C@H](NC(=O)c1ccc(N(C)C)cc1)C(=O)N1CC[C@@H]2[C@H]1C(=O)CN2C(=O)CC1CCCCC1 [Example 137, (3aR,6aS)-N-{(1S)-1-[4-(2-Cyclohexyl-acetyl)-6-oxo-hexahydro-pyrrolo[3,2-b]pyrrole-1-carbonyl]-3-methyl-butyl}-4-dimethylamino-benzamide] | 1 to 5000 nM
CC(C)C[C@H](NC(=O)c1ccc(N(C)C)cc1)C(=O)N1CC[C@@H]2[C@H]1C(=O)CN2C(=O)c1ccco1 [Example 96, (3aR,6aS)-4-Dimethylamino-N-{(1S)-1-[4-(furan-2-carbonyl)-6-oxo-hexahydro-pyrrolo[3,2-b]pyrrole-1-carbonyl]-3-methyl-butyl}-benzamide] | 1 to 5000 nM
CC(C)C[C@H](NC(=O)c1ccc(N(C)C)cc1)C(=O)N1CC[C@@H]2[C@H]1C(=O)CN2C(=O)C1CCCCCC1 [Example 135, (3aR,6aS)-N-[(1S)-1-(4-Cycloheptanecarbonyl-6-oxo-hexahydro-pyrrolo[3,2-b]pyrrole-1-carbonyl)-3-methyl-butyl]-4-dimethylamino-benzamide] | 1 to 5000 nM
CC(C)C[C@H](NC(=O)c1ccc(N(C)C)cc1)C(=O)N1CC[C@@H]2[C@H]1C(=O)CN2C(=O)[C@@H]1CCCN1C(=O)OCc1ccccc1 [Example 154, (3aS,6aR)-(2S)-2-{4-[(2S)-2-(4-Dimethylamino-benzoylamino)-4-methyl-pentanoyl]-3-oxo-hexahydro-pyrrolo[3,2-b]pyrrole-1-carbonyl}-pyrrolidine-1-carboxylic acid benzyl ester] | 1 to 5000 nM
CC(C)C[C@H](NC(=O)c1ccc(N(C)C)cc1)C(=O)N1CC[C@@H]2[C@H]1C(=O)CN2C(=O)C(F)F [Example 125, (3aR,6aS)-N-{(1S)-1-[4-(2,2-Difluoro-acetyl)-6-oxo-hexahydro-pyrrolo[3,2-b]pyrrole-1-carbonyl]-3-methyl-butyl}-4-dimethylamino-benzamide] | 1 to 5000 nM
CC[C@H](C)[C@H](NC(=O)OCc1ccccc1)C(=O)N1CC(=O)[C@@H]2[C@H]1CCN2C(=O)[C@H](CC(C)C)NC(=O)c1ccc(N(C)C)cc1 [Example 161, (3 aS,6aR)-((1S,2S)-1-{4-[(2S)-2-(4-Dimethylamino-benzoylamino)-4-methyl-pentanoyl]-3-oxo-hexahydro-pyrrolo[3,2-b]pyrrole-1-carbonyl}-2-methyl-butyl)-carbamic acid benzyl ester] | 1 to 5000 nM
CC(C)C[C@H](NC(=O)c1cc2ccccc2o1)C(=O)N1CC[C@@H]2[C@H]1C(=O)CN2C(=O)c1ccccc1 [Example 9, (3aR,6aS)-Benzofuran-2-carboxylic acid [(1S)-1-(4-benzoyl-6-oxo-hexahydropyrrolo[3,2-b]pyrrole-1-carbonyl)-3-methyl-butyl]-amide] | 1 to 5000 nM
CC(C)C[C@H](NC(=O)c1cc2ccccc2o1)C(=O)N1CC[C@@H]2[C@H]1C(=O)CN2C(=O)c1cccnc1 [Example 16, (3aR,6aS)-Benzofuran-2-carboxylic acid {(1S)-3-methyl-1-[6-oxo-4-(pyridine-3-carbonyl)-hexahydro-pyrrolo[3,2-b]pyrrole-1-carbonyl]-butyl}-amide] | 1 to 5000 nM
CC(C)C[C@H](NC(=O)c1ccc(C(C)(C)C)cc1)C(=O)N1CC[C@@H]2[C@H]1C(=O)CN2C(=O)c1ccncc1 [Example 6, (3aR,6aS)-4-tert-Butyl-N-{(1S)-3-methyl-1-[6-oxo-4-(pyridine-4-carbonyl)-hexahydro-pyrrolo[3,2-b]pyrrole-1-carbonyl]-butyl}-benzamide] | 1 to 5000 nM
CC(C)C[C@H](NC(=O)c1ccc(N(C)C)cc1)C(=O)N1CC[C@@H]2[C@H]1C(=O)CN2C(=O)CC1CC1 [Example 132, (3aR,6aS)-N-{(1S)-1-[4-(2-Cyclopropyl-acetyl)-6-oxo-hexahydro-pyrrolo[3,2-b]pyrrole-1-carbonyl]-3-methyl-butyl}-4-dimethylamino-benzamide] | 1 to 5000 nM
CC(C)C[C@H](NC(=O)c1ccc(N(C)C)cc1)C(=O)N1CC[C@@H]2[C@H]1C(=O)CN2C(=O)N1CCOCC1 [Example 142, (3aR,6aS)-4-Dimethylamino-N-{(1S)-3-methyl-1-[4-(morpholin-4-carbonyl)-6-oxo-hexahydro-pyrrolo[3,2-b]pyrrole-1-carbonyl]-butyl}-benzamide] | 1 to 5000 nM
CC(C)C[C@H](NC(=O)c1ccc(N(C)C)cc1)C(=O)N1CC[C@@H]2[C@H]1C(=O)CN2C(=O)c1ccc(Cl)cc1 [Example 74, (3aR,6aS)-N-{(1S)-1-[4-(4-Chloro-benzoyl)-6-oxo-hexahydro-pyrrolo[3,2-b]pyrrole-1-carbonyl]-3-methyl-butyl}-4-dimethylamino-benzamide] | 1 to 5000 nM
CC(C)C[C@H](NC(=O)c1ccc(N(C)C)cc1)C(=O)N1CC[C@@H]2[C@H]1C(=O)CN2C(=O)c1ccc(C(C)(C)C)cc1 [Example 75, (3aR,6aS)-N-{(1S)-1-[4-(4-tert-Butyl-benzoyl)-6-oxo-hexahydro-pyrrolo[3,2-b]pyrrole-1-carbonyl]-3-methyl-butyl}-4-dimethylamino-benzamide] | 1 to 5000 nM
CC(C)C[C@H](NC(=O)c1ccc(N(C)C)cc1)C(=O)N1CC[C@@H]2[C@H]1C(=O)CN2C(=O)C1CCNC1 (stereo partly drawn) [Example 237, (3aR,6aS)-4-Dimethylamino-N-{(1S)-3-methyl-1-[6-oxo-4-(pyrrolidine-3-carbonyl)-hexahydro-pyrrolo[3,2-b]pyrrole-1-carbonyl]-butyl}-benzamide] | 1 to 5000 nM
CC(C)C[C@H](NC(=O)c1ccc(N2CCOCC2)cc1)C(=O)N1CC[C@@H]2[C@H]1C(=O)CN2C(=O)c1ccccc1 [Example 85, (3aR,6aS)-N-[(1S)-1-(4-Benzoyl-6-oxo-hexahydro-pyrrolo[3,2-b]pyrrole-1-carbonyl)-3-methyl-butyl]-4-morpholin-4-yl-benzamide] | 1 to 5000 nM
CC(=O)N[C@@H](C)C(=O)N1CC(=O)[C@@H]2[C@H]1CCN2C(=O)[C@H](CC(C)C)NC(=O)c1ccc(N(C)C)cc1 [Example 197, (3aR,6aS)-N-{(1S)-1-[4-((2S)-2-Acetylamino-propionyl)-6-oxo-hexahydro-pyrrolo[3,2-b]pyrrole-1-carbonyl]-3-methyl-butyl}-4-dimethylamino-benzamide] | 1 to 5000 nM
CC(C)C[C@H](NC(=O)c1ccc(N(C)C)cc1)C(=O)N1CC[C@@H]2[C@H]1C(=O)CN2C(=O)[C@H](CO)NC(=O)OCc1ccccc1 [Example 147, (3aS,6aR)-((1S)-2-{4-[(2S)-2-(4-Dimethylamino-benzoylamino)-4-methyl-pentanoyl]-3-oxo-hexahydro-pyrrolo[3,2-b]pyrrole-1-yl}-1-hydroxymethyl-2-oxo-ethyl)-carbamic acid benzyl ester] | 1 to 5000 nM
CC(C)C[C@H](NC(=O)c1ccc(N(C)C)cc1)C(=O)N1CC[C@@H]2[C@H]1C(=O)CN2C(=O)[C@H](C)N [Example 162, (3aR,6aS)-N-{(1S)-1-[4-((2S)-2-Amino-propionyl)-6-oxo-hexahydro-pyrrolo[3,2-b]pyrrole-1-carbonyl]-3-methyl-butyl}-4-dimethylamino-benzamide] | 1 to 5000 nM
